Source: patent US20240343736A1, “KRAS INHIBITORS” (ELI LILLY AND COMPANY, priority 2023, published 2024)
Some results were stated once for a whole list of compounds, not compound by compound.

Assays:
Type in all cases: cell-based
[1] = target: T1, KRAS G12C (Homo sapiens, UniProt P01116, G12C); assay: Cellular Phospho-ERK AlphaLISA assay, NCI-1373 cells (KRAS G12C); settings: cells expressing KRAS G12C; 2 h incubation; read-out: relative IC50, reduction of phosphorylated ERK-1/2
T1 construct: endogenous in cells; host or cells: NCI-1373 (human lung cancer)

[2] = target: T2, KRAS G12D (Homo sapiens, UniProt P01116, G12D); assay: Cellular Phospho-ERK AlphaLISA assay, HPAC cells (KRAS G12D); settings: cells expressing KRAS G12D; 2 h incubation; read-out: relative IC50, reduction of phosphorylated ERK-1/2
T2 construct: endogenous in cells; host or cells: HPAC (human pancreatic cancer)

[3] = target: T3, KRAS G12V (Homo sapiens, UniProt P01116, G12V); assay: Cellular Phospho-ERK AlphaLISA assay, SW620 cells (KRAS G12V); settings: for selective inhibition preference for KRas G12V mutant over HRAS and NRAS: SW620 vs MEF-NRAS and MEF-HRAS Phospho-ERK AlphaLISA assays; for IC50: cells expressing KRAS G12V, 2 h incubation, read-out: relative IC50, reduction of phosphorylated ERK-1/2
T3 construct: endogenous in cells; host or cells: SW620 (human colorectal cancer)

[4] = target: T4, KRAS WT (Homo sapiens, UniProt P01116); assay: Cellular Phospho-ERK AlphaLISA assay, cells expressing KRAS WT (MKN45, WT KRAS amplification); settings: 2 h incubation, read-out: relative IC50, reduction of phosphorylated ERK-1/2
T4 construct: or amplification of the KRAS gene; endogenous in cells; host or cells: MKN45 (human gastric cancer, WT KRAS amplification)

Row | SMILES | IC50 [1] [nM] | IC50 [2] [nM] | selective inhibition preference for KRas G12V mutant over HRAS and NRAS [3] | IC50 [3] [nM] | IC50 [4] [nM]
1 | N#Cc1c(N)sc2c(F)ccc(-c3c4c(c5c(NCc6ccnnc6)nc(OC[C@@]67CCCN6C[C@H](F)C7)nc5c3Cl)COC4)c12 (single isomer, unassigned; atropisomer 1) [Example 1A] | < 500 | < 500 | greater than 10 fold | < 500 | < 500
2 | CN(C)C1CN(c2nc(NCc3cccnn3)c3c4c(c(-c5c(F)ccc6sc(N)c(C#N)c56)c(Cl)c3n2)COC4)C1 (single isomer, unassigned; atropisomer 1) [Example 6C, 2-Amino-4-(5-chloro-3-(3-(dimethylamino)azetidin-1-yl)-1-((pyridazin-3-ylmethyl)amino)-7,9-dihydrofuro[3,4-f]quinazolin-6-yl)-5-fluorobenzo[b]thiophene-3-carbonitrile, Atropisomer 1] | < 500 | < 500 | greater than 10 fold | < 500 | < 500
3 | CN(C)[C@H]1CCN(c2nc(NCc3cccnn3)c3c4c(c(-c5c(F)ccc6sc(N)c(C#N)c56)c(Cl)c3n2)COC4)C1 (single isomer, unassigned; atropisomer 1) [Example 8C] | < 500 |  | greater than 10 fold | < 500 | < 500
4 | CN(C)C1(C)CN(c2nc(NCc3cccnn3)c3c4c(c(-c5c(F)ccc6sc(N)c(C#N)c56)c(Cl)c3n2)COC4)C1 (single isomer, unassigned; atropisomer 1) [Example 10C, 2-Amino-4-(5-chloro-3-(3-(dimethylamino)-3-methylazetidin-1-yl)-1-((pyridazin-3-ylmethyl)amino)-7,9-dihydrofuro[3,4-f]quinazolin-6-yl)-5-fluorobenzo[b]thiophene-3-carbonitrile, Atropisomer 1] | < 500 | < 500 | greater than 10 fold | < 500 | < 500
5 | CCc1nnc(CNc2nc(OC[C@H]3COCCO3)nc3c(Cl)c(-c4ccc(F)c5sc(N)c(C#N)c45)c4c(c23)COC4)o1 (single isomer, unassigned; atropisomer 1) [Example 13] | < 500 | < 500 | greater than 10 fold | < 500 | < 500
6 | CN1CC[C@@H](Nc2nc(OC[C@@H]3CCCN3C)nc3c(Cl)c(-c4ccc(F)c5sc(N)c(C#N)c45)c4c(c23)COC4)C1=O (single isomer, unassigned; atropisomer 1) [Example 14B] | < 500 | < 500 |  |  | < 500
7 | N#Cc1c(N)sc2c(F)ccc(-c3c4c(c5c(N[C@H]6CCCNC6=O)nc(OC[C@@]67CCCN6C[C@H](F)C7)nc5c3Cl)COC4)c12 (single isomer, unassigned; atropisomer 1) [Example 22A] |  | < 500 |  | < 500 | < 500
8 | CN1CCC[C@@H](Nc2nc(OC[C@@]34CCCN3C[C@H](F)C4)nc3c(Cl)c(-c4ccc(F)c5sc(N)c(C#N)c45)c4c(c23)COC4)C1=O (single isomer, unassigned; atropisomer 1) [Example 28A] | < 500 | < 500 |  |  | < 500
9 | CO[C@@H]1C[C@@H]([C@H](C)Oc2nc(NCc3cccnn3)c3c4c(c(-c5ccc(F)c6sc(N)c(C#N)c56)c(Cl)c3n2)COC4)N(C)C1 (single isomer, unassigned; atropisomer 1) [Example 40C] |  | < 500 | greater than 10 fold | < 500 | < 500
10 | CCc1nnc(CNc2nc(N3CC[C@H](N(C)C)C3)nc3c(Cl)c(-c4ccc(F)c5sc(N)c(C#N)c45)c4c(c23)COC4)o1 (single isomer, unassigned; atropisomer 1) [Example 41A] |  | < 500 | greater than 10 fold | < 500 | < 500
11 | CCc1nnc(CNc2nc(N3CC(N(C)C)C3)nc3c(Cl)c(-c4ccc(F)c5sc(N)c(C#N)c45)c4c(c23)COC4)o1 (single isomer, unassigned; atropisomer 1) [Example 43A, 2-Amino-4-(5-chloro-3-(3-(dimethylamino)azetidin-1-yl)-1-(((5-ethyl-1,3,4-oxadiazol-2-yl)methyl)amino)-7,9-dihydrofuro[3,4-f]quinazolin-6-yl)-7-fluorobenzo[b]thiophene-3-carbonitrile, Atropisomer 1] |  | < 500 | greater than 10 fold | < 500 | < 500
12 | CN1CC[C@@H](Nc2nc(N3CC(N(C)C)C3)nc3c(F)c(-c4c(F)ccc5sc(N)c(C#N)c45)c4c(c23)COC4)C1=O.O=C(O)C(F)(F)F (single isomer, unassigned; atropisomer 1) [Example 45A] | < 500 |  | greater than 10 fold | < 500 | < 500
13 | CN1CC[C@@H](Nc2nc(N3CC[C@H](N(C)C)C3)nc3c(F)c(-c4c(F)ccc5sc(N)c(C#N)c45)c4c(c23)COC4)C1=O.O=C(O)C(F)(F)F (single isomer, unassigned; atropisomer 1) [Example 47A] | < 500 |  | greater than 10 fold | < 500 | < 500
14 | CN(C)[C@H]1CCN(c2nc(NCc3nc(C4CC4)n[nH]3)c3c4c(c(-c5c(F)ccc6sc(N)c(C#N)c56)c(F)c3n2)COC4)C1.O=C(O)C(F)(F)F (single isomer, unassigned; atropisomer 1) [Example 49A] | < 500 |  | greater than 10 fold | < 500 | < 500
15 | CN1CCO[C@@H](COc2nc(N[C@@H]3CCN(C)C3=O)c3c4c(c(-c5ccc(F)c6sc(N)c(C#N)c56)c(Cl)c3n2)COC4)C1 (single isomer, unassigned; atropisomer 2) [Example 31A] |  | < 500 |  |  | < 500
16 | CN(C)[C@H]1CCN(c2nc(OCc3cccnn3)c3c4c(c(-c5c(F)ccc6sc(N)c(C#N)c56)c(F)c3n2)COC4)C1 [Example 3C, 2-Amino-4-(3-((S)-3-(dimethylamino)pyrrolidin-1-yl)-5-fluoro-1-(pyridazin-3-ylmethoxy)-7,9-dihydrofuro[3,4-f]quinazolin-6-yl)-5-fluorobenzo[b]thiophene-3-carbonitrile] |  | < 500 |  |  | < 500
17 | CN1CCC[C@H]1COc1nc(NCc2noc3c2CCCC3)c2c3c(c(-c4ccc(F)c5sc(N)c(C#N)c45)c(Cl)c2n1)COC3 [Example 7, 2-Amino-4-(5-chloro-3-(((S)-1-methylpyrrolidin-2-yl)methoxy)-1-(((4,5,6,7-tetrahydrobenzo[d]isoxazol-3-yl)methyl)amino)-7,9-dihydrofuro[3,4-f]quinazolin-6-yl)-7-fluorobenzo[b]thiophene-3-carbonitrile] | < 500 |  |  | < 500 | < 500
18 | Cc1cc(CNc2nc(OC[C@@]34CCCN3C[C@H](F)C4)nc3c(Cl)c(-c4ccc(F)c5sc(N)c(C#N)c45)c4c(c23)COC4)no1 [Example 11B, 2-Amino-4-(5-chloro-3-(((2R,7aS)-2-fluorotetrahydro-1H-pyrrolizin-7a(5H)-yl)methoxy)-1-(((5-methylisoxazol-3-yl)methyl)amino)-7,9-dihydrofuro[3,4-f]quinazolin-6-yl)-7-fluorobenzo[b]thiophene-3-carbonitrile] |  | < 500 | greater than 10 fold |  | < 500
19 | CCc1nnc(CNc2nc(OC[C@H]3COCCO3)nc3c(Cl)c(-c4ccc(F)c5sc(N)c(C#N)c45)c4c(c23)COC4)o1 [Example 12, 4-(3-(((R)-1,4-Dioxan-2-yl)methoxy)-5-chloro-1-(((5-ethyl-1,3,4-oxadiazol-2-yl)methyl)amino)-7,9-dihydrofuro[3,4-f]quinazolin-6-yl)-2-amino-7-fluorobenzo[b]thiophene-3-carbonitrile] | < 500 |  | greater than 10 fold | < 500 | < 500
20 | CN1CCC[C@@H](Nc2nc(N3CC[C@H](N(C)C)C3)nc3c(Cl)c(-c4ccc(F)c5sc(N)c(C#N)c45)c4c(c23)COC4)C1=O [Example 34A, 2-Amino-4-(5-chloro-3-((S)-3-(dimethylamino)pyrrolidin-1-yl)-1-(((R)-1-methyl-2-oxopiperidin-3-yl)amino)-7,9-dihydrofuro[3,4-f]quinazolin-6-yl)-7-fluorobenzo[b]thiophene-3-carbonitrile] |  | < 500 |  |  | < 500
21 | N#Cc1c(N)sc2c(F)cnc(-c3c4c(c5c(NCc6nc(C7CC7)n[nH]6)nc(OC[C@@]67CCCN6C[C@H](F)C7)nc5c3F)COC4)c12 [Example 51A, 2-Amino-4-(1-(((3-cyclopropyl-1H-1,2,4-triazol-5-yl)methyl)amino)-5-fluoro-3-(((2R, 7aS)-2-fluorotetrahydro-1H-pyrrolizin-7a(5H)-yl)methoxy)-7,9-dihydrofuro[3,4-f]quinazolin-6-yl)-7-fluorothieno[3,2-c]pyridine-3-carbonitrile] | < 500 |  | greater than 10 fold | < 500 | < 500
